Experimental data published in patent US6649588.
Results are given in words; binding and its absence hold for the method and conditions named. For some assays here: Binding seen in cells or lysates may run through a third protein. Some binding calls cover weakened binding; strength is not graded here.

Chains of the proteins cited; added tags and fusions are not shown. Residues count along the entry.
UniProt Q62432, residues 2-467: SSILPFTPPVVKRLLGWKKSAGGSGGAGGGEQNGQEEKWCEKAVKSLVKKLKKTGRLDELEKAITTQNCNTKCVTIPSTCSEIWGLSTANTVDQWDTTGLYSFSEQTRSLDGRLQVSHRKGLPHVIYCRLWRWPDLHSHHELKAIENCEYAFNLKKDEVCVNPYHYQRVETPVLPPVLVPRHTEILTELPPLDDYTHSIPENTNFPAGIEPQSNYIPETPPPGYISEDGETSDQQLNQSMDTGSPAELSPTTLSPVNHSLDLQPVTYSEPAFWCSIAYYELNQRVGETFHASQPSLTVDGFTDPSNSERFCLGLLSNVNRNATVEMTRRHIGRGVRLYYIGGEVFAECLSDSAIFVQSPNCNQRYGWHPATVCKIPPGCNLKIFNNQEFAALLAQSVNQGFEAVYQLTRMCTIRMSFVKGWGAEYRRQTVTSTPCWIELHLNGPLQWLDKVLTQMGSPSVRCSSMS
UniProt P97471: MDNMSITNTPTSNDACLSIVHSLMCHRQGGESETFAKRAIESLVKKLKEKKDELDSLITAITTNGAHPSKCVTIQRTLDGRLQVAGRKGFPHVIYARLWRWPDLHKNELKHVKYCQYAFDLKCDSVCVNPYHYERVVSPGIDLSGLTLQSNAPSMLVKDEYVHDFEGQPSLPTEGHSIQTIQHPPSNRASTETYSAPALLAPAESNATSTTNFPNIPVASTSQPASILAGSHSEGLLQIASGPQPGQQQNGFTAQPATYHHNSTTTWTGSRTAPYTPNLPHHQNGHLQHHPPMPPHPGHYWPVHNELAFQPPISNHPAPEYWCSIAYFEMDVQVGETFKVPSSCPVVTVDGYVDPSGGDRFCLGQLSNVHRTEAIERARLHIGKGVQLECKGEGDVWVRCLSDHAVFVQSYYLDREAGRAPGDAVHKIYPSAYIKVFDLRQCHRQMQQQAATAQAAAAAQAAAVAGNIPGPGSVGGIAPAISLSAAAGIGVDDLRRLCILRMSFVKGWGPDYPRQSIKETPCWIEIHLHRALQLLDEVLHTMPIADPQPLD

Assays:
[1] = biological target: T1, TGF-β receptor type I (mouse) (UniProt Q64729); assay: IP with anti-Smad2 from lysates of P19 cells whose receptors were cross-linked to radioiodinated TGF-β; SDS-PAGE and autoradiography
T1 sequence (looked up): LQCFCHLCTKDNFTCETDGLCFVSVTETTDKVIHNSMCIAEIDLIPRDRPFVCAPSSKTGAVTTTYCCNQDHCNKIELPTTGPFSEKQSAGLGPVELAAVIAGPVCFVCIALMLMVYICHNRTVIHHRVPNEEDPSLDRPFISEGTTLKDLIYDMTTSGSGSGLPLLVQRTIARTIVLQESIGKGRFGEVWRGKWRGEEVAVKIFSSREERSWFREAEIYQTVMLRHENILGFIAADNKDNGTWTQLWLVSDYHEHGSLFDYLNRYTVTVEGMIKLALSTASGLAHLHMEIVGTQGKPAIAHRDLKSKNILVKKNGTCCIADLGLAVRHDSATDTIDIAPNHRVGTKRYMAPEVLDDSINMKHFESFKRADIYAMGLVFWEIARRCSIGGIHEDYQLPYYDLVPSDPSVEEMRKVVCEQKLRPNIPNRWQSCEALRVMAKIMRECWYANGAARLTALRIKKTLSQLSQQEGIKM

[2] = biological target: Smad2 (mouse) (UniProt Q62432); assay: Co-immunoprecipitation: Smad2 IP from the nuclear fraction of TGF-β-treated P19 cells, Western blot for Smad4

Q: How did the binding [1] turn out when Smad2 (from UniProt Q62432 2-467) was run?
A: binds

Q: For Smad4 (from UniProt P97471 1-551), which binding [2] is on record?
A: binds
